Experimental data: the supplement of paper PMC6445147
Single values of this data set are uncertain.

B1: human tRNA-Pro; a variant is named by its letters at N, in order (parent)
chain: GGCTCGTTGGTCTAGNGGTATGATTCTCGCTTAGGGTGCGAGAGGTCCCGGGTTCNNATCCCGGACGAGCCC

How the values were obtained:
[1] = variants of: B1; assay: tRNA Pol-III promoter activity, log2 (circRNA frequency / plasmid DNA frequency) (log2 ratio); higher = stronger promoter activity; settings: HEK293T; construct: no Pol-II promoter ((-)CMV library)
[2] = variants of: B1; assay: tRNA 3' processing efficiency (processed reads / all reads, maximum-likelihood estimate) (fraction); higher = more efficient 3' processing; settings: HEK293T; construct: no Pol-II promoter ((-)CMV library)
[3] = variants of: B1; assay: tRNA 5' processing efficiency (processed reads / all reads, maximum-likelihood estimate) (fraction); higher = more efficient 5' processing; settings: HEK293T; construct: CMV Pol-II promoter ((+)CMV library, decapped)

Variant	tRNA Pol-III promoter activity (log2) [1]	tRNA 3' processing efficiency [2]	tRNA 5' processing efficiency [3]
ACA T8C T19A C55G	5.93	0.25	
GCA A20G A58C	3.25	0.4	
GCA A20G A58T	5.75	0.29	
GCA A20G A58G	2.79	0.2	
GCA A20T	0.242	0.41	
GCA G9A A14C	4.77	0.4	
CAT T59G	3.49	0.2	
GCA T19A A58G	6.75	0.43	
GCC A58G	4.25	0.4	
ACG A58T	3.68	0.2	
GGA A14C T19A A58G	5.51	0.33	
GAT T19A T59C	4	0.25	
GCA T8C A58T	5.53	0.5	
TCA	2.8	0.38	
TCG	4.77	0.2	
TCC	5.16	0.47	
GGA A14G A58T	5.12	0.59	
GCC A20G	4.94	0.38	
CAT T53G	5.51	0.08	
TCT G17T	5.94	0.25	
GCG T8C	4.15	0.29	
GCA A14T A20C C55T	7.03	0.87	
ACA T19A A58T	4.52	0.14	
GGA A14C G18T T53G	5.94	0.5	
GCA A14G G15C A58T	7.25	0.5	
GCA A14T G17T T19G	4.93	0.5	

Variant	tRNA Pol-III promoter activity (log2) [1]	tRNA 3' processing efficiency [2]	tRNA 5' processing efficiency [3]
GAT T19C T54A	3.62	0.67	
GCA	0.886	0.42	0.47
GCG	1.29	0.15	0.09
GCT	1.17	0.31	0.25
GCC	2.58	0.09	0.33
GCA C55T	-0.207	0.54	0.33
GCA G15C	-0.326	0.33	0.4
GCA G15T	-0.484	0.2	
GCA G15A	0.35	0.43	
GCA G18T T59A	3.55	0.2	
GCG A58G	4.87	0.73	
GCA A14G T59C	1.94	0.33	
GCA A14G T59G	4.49	0.68	0.25
GAT T19G A20G	3.74	0.57	
GAT T19G A20C	5.49	0.27	
GGA	-1.24	0.45	0.27
GCA G9A T19A	3.77	0.2	
GCA G9A T19C	5.07	0.64	
GCA A58G	1.52	0.25	
GCA A58C	1.65	0.47	
GCA A58T	1.48	0.29	0.22
GCA A20T A58C	6.59	0.68	
TCA T19G T59G	5.62	0.33	
GCA A14T C55T	4.28	0.16	
TGA A14G A58G	5.52	0.93	
GCA T53G	1.29	0.64	

Variant	tRNA Pol-III promoter activity (log2) [1]	tRNA 3' processing efficiency [2]	tRNA 5' processing efficiency [3]
GCA T53A	1.8	0.13	
GCA T19G T59C	3.23	0.25	
GAT T19A A58T	3.76	0.62	
GCA T19A T59C	5.97	0.13	
GCA T19A T59G	4.94	0.5	
GCA T19A T59A	5.53	0.56	
ACA G15A	4.36	0.15	
GGA A14C A20T A58T	6.73	0.54	
GCA A14C T19G	3.61	0.62	
GCA G17C C55T	2.93	0.25	
GAT T53C A58T	1.93	0.5	
GCA A14G G17T A58G	3.36	0.25	
GGA A14C A20T	9.88	0.09	
GGA A14T A58T	3.59	0.2	
GCA A14C G18T T59G	5.03	0.6	
GGA A14T G18A A58T	6.36	0.4	
GGA A14G T54A T59C	4.26	0.4	
GCA G17A A20G	3.43	0.57	
CCA T8C A14T G15A T59A	5.71	0.06	
GCA A20C A58G	6.75	0.57	
AAT T19G	4	0.15	
GCA T8G G17C	4.03	0.4	
GCA T19C A20C	4.93	0.33	
GAT T8G T19G	2.12	0.5	
GGA A14C T53A	3.53	0.25	
GAT T19G T59A	4.75	0.57	

Variant	tRNA Pol-III promoter activity (log2) [1]	tRNA 3' processing efficiency [2]	tRNA 5' processing efficiency [3]
AGA A14T C55T	6.1	0.33	
GCA T8G A58T	2.68	0.29	
GCA T8G A58G	2.45	0.5	
TCA A58C	4.12	0.3	
TCA A58T	3.59	0.18	
CCA G9A	3.13	0.22	
GCA T8A A58T	3.94	0.57	
GCA A14T T59C	3.93	0.25	
GCA A14T T59A	3.19	0.2	
GCA A14C T59C	5.1	0.25	
GCA T19A A20T	5.51	0.58	
GCA T19A A20G	4.36	0.4	
TCA A20G	3.95	0.33	
GGA A14G T19G T54A	4.36	0.38	
CCA A58T T59C	4.62	0.13	
GCA G17C	0.0342	0.25	
GCA G17T	1.22	0.2	
GGA A14C G15T C55T	7.62	0.5	
ACA A58C	3.28	0.43	
ACA A58T	6.31	0.79	
GGA A14C A58C	4.26	0.4	
GCA G18A	0.194	0.36	
GCC T19A A58T	3.61	0.5	
TCA A14G	4.36	0.44	
GCA A14G G18T	3.33	0.62	
CGA A14T A58T	5.94	0.25	

Only tRNA 3' processing efficiency [2], for some of the entries so far:
Variant | tRNA 3' processing efficiency [2]
GCA T8G A58T | 0.29
GCA A14T T59C | 0.25
GCA G17T | 0.2
TCA A14G | 0.44

The list goes on.

Variant	tRNA Pol-III promoter activity (log2) [1]	tRNA 3' processing efficiency [2]	tRNA 5' processing efficiency [3]
GGA A14T T53A	3.16	0.17	
GCC A58T T59G	5.93	0.25	
GCA G15A T19A A58C	4.03	0.4	
GCA G1A	5.93	0.25	
GCA T19C A58T	1.42	0.25	
GCA A14T A58G	3.4	0.11	
GCA A14T A58C	4.36	0.13	
GAT T19C A58G	4.76	0.34	
CCA A58T	3.18	0.45	
CCA A58G	4.12	0.62	
CAT T19C	5.59	0.14	
CAT T19G	4.03	0.45	
GCA A14G T19G	2.93	0.5	
TCG T8C T53A T54G A58T	4.62	0.67	
GAT T8G T19G T59C	6.75	0.43	
GCA T19A T53C	4.94	0.3	
GGA A14G G17A T54A	5.62	0.33	
GCA G18C T19C T53C T54G	5.53	0.22	
GCA A58G T59G	3.03	0.4	
GCA A58G T59C	5.2	0.11	
ACC	4.86	0.26	
ACA	3.06	0.33	
GAT T54C	-0.116	0.25	
GAT T54A	0.228	0.2	
GCA G18A A58T	2.96	0.59	
GCA G9T A14C	2.12	0.25	

Variant	tRNA Pol-III promoter activity (log2) [1]	tRNA 3' processing efficiency [2]	tRNA 5' processing efficiency [3]
TCA T59G	3.64	0.53	
TCA T59C	2.42	0.25	
GCA A14C A58T	6.51	0.33	
GCA A14C A58C	4.19	0.18	
GCA T59G	0.151	0.57	
GCA T59C	2.27	0.44	
GCA T59A	2.67	0.16	0.25
GAT T53A	1.88	0.24	
GAT T53G	-0.704	0.25	
GCA G17T A58C	4.08	0.7	
GGA A14C C55T	3.23	0.23	
GCC G15C T19A	6.75	0.14	
GAT T19A	1.32	0.44	
GAT T19C	1.16	0.27	
GAT T19G	1.52	0.26	
GCA A58T T59C	4.94	0.25	
ACA A14G T53G	5.77	0.05	
GGA A14T C55G	2.74	0.14	
GGA A14T C55T	3.55	0.3	
GGA A14C T59G	5.21	0.42	
TCA A14T A58C	4.26	0.2	
ACA G15T A58T	5.84	0.57	
GCA T8G	0.527	0.5	
GCA T8C	1.43	0.46	
GCT T59G	3.65	0.28	
GGA A14C G18A	6.53	0.75	

Five successive records out of the list so far, quoted:
Variant	tRNA Pol-III promoter activity (log2) [1]	tRNA 3' processing efficiency [2]	tRNA 5' processing efficiency [3]
GCA A14T A58G	3.4	0.11	
GCA A14T A58C	4.36	0.13	
GAT T19C A58G	4.76	0.34	
CCA A58T	3.18	0.45	
CCA A58G	4.12	0.62	

The list goes on:

Variant	tRNA Pol-III promoter activity (log2) [1]	tRNA 3' processing efficiency [2]	tRNA 5' processing efficiency [3]
GGA A14G T54A	2.67	0.39	
TAT T59C	3.22	0.22	
GCA A14T G17T A20T A58T	6.26	0.2	
GAT T19A A20T	3.12	0.38	
GAT T19A A20C	4.96	0.35	
CCA G9T A58T	6.39	0.64	
GGA A14C G15C T59C	6.53	0.5	
GCA G9T	-0.409	0.25	
GCA G9A	2.03	0.71	0.33
GCA A14T T19A	4.25	0.2	
GCA A14T T19G	4.4	0.67	
GCA A14T A20C	4.34	0.62	
GCC T8C	4.84	0.29	
ACA C55T	4.26	0.8	
ACA C55G	4.62	0.33	
GCA A14T T19A T59G	6.84	0.14	
ACA T59G	4.21	0.5	
GGA A14C	1.84	0.13	
GGA A14G	1.28	0.4	0.13
GGA A14T	0.0348	0.19	0.25
GGA A14G T59C	3.62	0.25	
GGA A14T A20G C55T	5.59	0.79	
GGA A14G A20T T53A	6.53	0.5	
GGA A14C A58G T59G	4.51	0.5	
GCC A14G	3.45	0.33	
GCA T19G A58T	1.84	0.25	

2 entries from above, field by field.
GCA A14T T19G
  tRNA Pol-III promoter activity (log2) [1]: 4.4
  tRNA 3' processing efficiency [2]: 0.67
GCA A14T A20C
  tRNA Pol-III promoter activity (log2) [1]: 4.34
  tRNA 3' processing efficiency [2]: 0.62

Next part

Variant	tRNA Pol-III promoter activity (log2) [1]	tRNA 3' processing efficiency [2]	tRNA 5' processing efficiency [3]
GCA A14T	1.94	0.33	0.2
GCA A14C	2.97	0.4	
GCA A14G	1.7	0.29	
CCC	4.68	0.1	
CCG	5.28	0.43	
CCA	1.01	0.27	
GAT T59G	0.623	0.45	
GAT T59A	1.53	0.4	
GAT T59C	4.27	0.39	
AAT T53G	3.36	0.25	
GAT T19G A58T	0.694	0.5	
GAT T19G A58C	3.13	0.25	
GCA T8G G18T	3.62	0.25	
GCA G18A T19C	4.74	0.43	
GAT T53A T59A	5.26	0.3	
GAT T53A T59C	1.94	0.33	
TCA T19C	5.93	0.25	
TCA T19G	4.19	0.33	
TCA T19A	6.53	0.5	
TAT T19C	4.63	0.46	
TAT T19G	3.83	0.38	
TAT T53A	2.79	0.2	
GCA A14C A20T	4.41	0.42	
CCA T19G	3.78	0.22	
GCC A14G G17A	5.25	0.4	
GCG T19A	3.62	0.25	

Variant	tRNA Pol-III promoter activity (log2) [1]	tRNA 3' processing efficiency [2]	tRNA 5' processing efficiency [3]
CCA A14G	5.18	0.53	
CCA A14T	3.48	0.29	
TCA C55T	1.85	0.25	
GCA G15C A58G	3.71	0.17	
GCA T19G	1.04	0.11	
GCA T19A	0.849	0.36	
GCA T19C	2.82	0.25	
CGA A14G G18T C55G	7.64	0.31	
GGA A14G A58T T59G	5.94	0.25	
GCT T19C	3.41	0.11	
GCT T19G	4.68	0.2	0.5
GCT T19A	4.03	0.25	
GCA T8C G9A	6.06	0.38	
TCA T53A	2.71	0.25	
TGA	0.161	0.5	
TCA A14C T19C	7.94	0.13	
GCA A14G A58C	3.03	0.25	
GCA A14G A58G	2.53	0.17	
CCA A14T A20G	4.94	0.25	
